± gives the standard deviation of the averaged measurements. This is a selection; strong and weak results do not stand in their true shares.
Assays:
Test in all cases: NP40-soluble protein abundance relative to vehicle (solubility fold change) (ratio); higher = more soluble protein in presence of AMP-PNP
[1] = molecular target: T1, ANKMY2 (UniProt Q8IV38)
T1 sequence (whole entry): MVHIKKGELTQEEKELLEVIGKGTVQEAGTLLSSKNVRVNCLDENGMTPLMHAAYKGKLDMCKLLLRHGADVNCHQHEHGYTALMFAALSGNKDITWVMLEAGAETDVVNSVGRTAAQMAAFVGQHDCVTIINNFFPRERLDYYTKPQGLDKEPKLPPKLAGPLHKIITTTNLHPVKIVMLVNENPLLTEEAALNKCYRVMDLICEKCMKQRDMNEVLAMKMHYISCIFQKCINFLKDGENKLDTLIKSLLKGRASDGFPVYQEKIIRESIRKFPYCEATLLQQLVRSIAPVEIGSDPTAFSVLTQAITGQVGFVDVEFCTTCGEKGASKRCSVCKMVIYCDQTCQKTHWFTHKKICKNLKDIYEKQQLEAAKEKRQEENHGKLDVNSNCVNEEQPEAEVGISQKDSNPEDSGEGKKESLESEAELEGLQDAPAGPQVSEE
Method in brief: (§1)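 Jurkat crude lysate (Dounce-homogenised) was treated with eight concentrations from 0.1 to 10 mM for 10 min at room temperature, then 3 min at 37 °C. It was solubilised with 0.8% NP40 and benzonase (60 min, 4 °C) and ultracentrifuged, and the supernatant was TMT-labelled for LC-MS/MS. Intensities were vsn-normalised, and the value is the fold change against the NP40-processed vehicle per replicate, from three independent experiments.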

[2] = molecular target: T2, CBR4 (UniProt Q8N4T8)
T2 sequence (whole entry): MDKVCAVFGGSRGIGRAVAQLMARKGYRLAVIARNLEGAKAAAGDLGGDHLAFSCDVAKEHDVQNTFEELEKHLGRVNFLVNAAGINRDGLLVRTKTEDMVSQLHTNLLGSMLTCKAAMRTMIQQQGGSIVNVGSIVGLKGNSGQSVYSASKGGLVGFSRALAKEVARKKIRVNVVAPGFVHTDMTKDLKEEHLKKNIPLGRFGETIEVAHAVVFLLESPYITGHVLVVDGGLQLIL
Method in brief: as §1

[3] = molecular target: T3, ISCA2 (UniProt Q86U28)
T3 sequence (whole entry): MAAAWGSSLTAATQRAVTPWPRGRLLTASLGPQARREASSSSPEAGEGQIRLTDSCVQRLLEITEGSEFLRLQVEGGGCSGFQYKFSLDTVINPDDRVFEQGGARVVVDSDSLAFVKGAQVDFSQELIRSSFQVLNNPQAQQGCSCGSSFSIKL
Method in brief: as §1

[4] = molecular target: T4, KIAA0319L (UniProt Q8IZA0)
T4 sequence (whole entry): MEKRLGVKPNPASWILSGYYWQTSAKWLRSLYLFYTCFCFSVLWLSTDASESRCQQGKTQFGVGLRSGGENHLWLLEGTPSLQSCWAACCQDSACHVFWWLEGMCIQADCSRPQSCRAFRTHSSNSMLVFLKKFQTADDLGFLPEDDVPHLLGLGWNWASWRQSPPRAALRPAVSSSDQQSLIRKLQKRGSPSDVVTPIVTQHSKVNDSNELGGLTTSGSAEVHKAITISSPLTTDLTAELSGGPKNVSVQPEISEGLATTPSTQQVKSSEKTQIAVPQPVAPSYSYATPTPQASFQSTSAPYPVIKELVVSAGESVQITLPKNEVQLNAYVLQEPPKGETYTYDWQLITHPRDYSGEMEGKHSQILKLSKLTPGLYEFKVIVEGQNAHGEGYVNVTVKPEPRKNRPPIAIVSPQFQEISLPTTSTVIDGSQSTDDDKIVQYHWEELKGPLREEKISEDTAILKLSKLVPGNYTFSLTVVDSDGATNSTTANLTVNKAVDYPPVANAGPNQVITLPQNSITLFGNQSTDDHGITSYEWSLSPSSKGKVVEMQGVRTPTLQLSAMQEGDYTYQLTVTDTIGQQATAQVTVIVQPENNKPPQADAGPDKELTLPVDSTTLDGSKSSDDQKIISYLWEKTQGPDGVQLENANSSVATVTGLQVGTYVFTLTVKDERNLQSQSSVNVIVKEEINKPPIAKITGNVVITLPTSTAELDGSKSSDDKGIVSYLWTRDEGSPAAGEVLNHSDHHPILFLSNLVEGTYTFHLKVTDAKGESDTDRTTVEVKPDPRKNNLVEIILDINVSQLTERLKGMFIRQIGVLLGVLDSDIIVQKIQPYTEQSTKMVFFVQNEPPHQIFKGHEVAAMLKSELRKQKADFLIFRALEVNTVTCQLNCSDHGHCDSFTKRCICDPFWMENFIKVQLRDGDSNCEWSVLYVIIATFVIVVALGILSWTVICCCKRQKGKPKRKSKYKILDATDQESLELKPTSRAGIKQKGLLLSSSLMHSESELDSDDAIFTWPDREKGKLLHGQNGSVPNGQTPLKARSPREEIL
Method in brief: as §1

[5] = molecular target: T5, LNX2 (UniProt Q8N448)
T5 sequence (whole entry): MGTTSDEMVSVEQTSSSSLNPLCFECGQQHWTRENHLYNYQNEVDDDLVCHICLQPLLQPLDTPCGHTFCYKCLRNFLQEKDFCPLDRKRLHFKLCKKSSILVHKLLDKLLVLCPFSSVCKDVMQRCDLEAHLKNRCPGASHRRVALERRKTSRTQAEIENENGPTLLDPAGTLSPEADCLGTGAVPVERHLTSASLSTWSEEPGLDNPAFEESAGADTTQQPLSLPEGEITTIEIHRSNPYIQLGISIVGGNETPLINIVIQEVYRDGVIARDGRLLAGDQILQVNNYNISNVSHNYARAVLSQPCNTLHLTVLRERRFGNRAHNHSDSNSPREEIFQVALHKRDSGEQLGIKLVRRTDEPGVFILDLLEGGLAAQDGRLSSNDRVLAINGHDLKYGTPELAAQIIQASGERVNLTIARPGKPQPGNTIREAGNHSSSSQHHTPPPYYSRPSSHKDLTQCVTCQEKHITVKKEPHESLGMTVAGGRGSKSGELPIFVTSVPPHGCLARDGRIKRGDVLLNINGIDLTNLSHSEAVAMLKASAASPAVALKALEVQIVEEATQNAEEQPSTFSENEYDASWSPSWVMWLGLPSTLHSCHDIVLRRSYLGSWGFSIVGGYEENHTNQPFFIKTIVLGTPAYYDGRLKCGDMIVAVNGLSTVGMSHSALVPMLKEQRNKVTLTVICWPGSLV
Method in brief: as §1

For Nc1ncnc2c1ncn2[C@@H]1O[C@H](COP(=O)(O)OP(=O)(O)NP(=O)(O)O)[C@@H](O)[C@H]1O [adenylyl imidodiphosphate], which NP40-soluble protein abundance ([1]; concentration: 1mM) is on record?
The NP40-soluble protein abundance was 0.994 ± 0.021.

What about the NP40-soluble protein abundance ([1]; concentration: 2mM) of the same compound?
The NP40-soluble protein abundance was 0.972 ± 0.065.

What about the NP40-soluble protein abundance ([1]; concentration: 4mM) of the same compound?
Its NP40-soluble protein abundance is 0.945 ± 0.019.

And the NP40-soluble protein abundance ([1]; concentration: 6mM)?
The NP40-soluble protein abundance was 0.938 ± 0.04.

And the NP40-soluble protein abundance ([1]; concentration: 8mM)?
Its NP40-soluble protein abundance is 0.905 ± 0.016.

What about the NP40-soluble protein abundance ([1]; concentration: 10mM) of the same compound?
Its NP40-soluble protein abundance is 0.914 ± 0.049.

And the NP40-soluble protein abundance ([2]; concentration: 1mM)?
Its NP40-soluble protein abundance is 0.971 ± 0.034.

What about the NP40-soluble protein abundance ([2]; concentration: 2mM) of the same compound?
Its NP40-soluble protein abundance is 0.957 ± 0.041.

What about the NP40-soluble protein abundance ([2]; concentration: 4mM) of the same compound?
Its NP40-soluble protein abundance is 1 ± 0.017.

What about the NP40-soluble protein abundance ([2]; concentration: 6mM) of the same compound?
Its NP40-soluble protein abundance is 1.01 ± 0.065.

And the NP40-soluble protein abundance ([2]; concentration: 8mM)?
The NP40-soluble protein abundance was 1.02 ± 0.025.

What about the NP40-soluble protein abundance ([2]; concentration: 10mM) of the same compound?
The NP40-soluble protein abundance was 1.01 ± 0.032.

What about the NP40-soluble protein abundance ([3]; concentration: 1mM) of the same compound?
Its NP40-soluble protein abundance is 1.02 ± 0.041.

And the NP40-soluble protein abundance ([3]; concentration: 2mM)?
Its NP40-soluble protein abundance is 1.08 ± 0.073.

What about the NP40-soluble protein abundance ([3]; concentration: 4mM) of the same compound?
Its NP40-soluble protein abundance is 1.02 ± 0.04.

And the NP40-soluble protein abundance ([3]; concentration: 6mM)?
The NP40-soluble protein abundance was 1.01 ± 0.037.

What about the NP40-soluble protein abundance ([3]; concentration: 8mM) of the same compound?
Its NP40-soluble protein abundance is 0.973 ± 0.036.

What about the NP40-soluble protein abundance ([3]; concentration: 10mM) of the same compound?
Its NP40-soluble protein abundance is 0.987 ± 0.071.

What about the NP40-soluble protein abundance ([4]; concentration: 1mM) of the same compound?
The NP40-soluble protein abundance was 1.01 ± 0.014.

And the NP40-soluble protein abundance ([4]; concentration: 2mM)?
The NP40-soluble protein abundance was 1.03 ± 0.033.

And the NP40-soluble protein abundance ([4]; concentration: 4mM)?
Its NP40-soluble protein abundance is 0.977 ± 0.025.

And the NP40-soluble protein abundance ([4]; concentration: 6mM)?
The NP40-soluble protein abundance was 0.969 ± 0.034.

And the NP40-soluble protein abundance ([4]; concentration: 8mM)?
The NP40-soluble protein abundance was 0.976 ± 0.017.

And the NP40-soluble protein abundance ([4]; concentration: 10mM)?
Its NP40-soluble protein abundance is 0.9945 ± 0.0054.

What about the NP40-soluble protein abundance ([5]; concentration: 1mM) of the same compound?
The NP40-soluble protein abundance was 0.991 ± 0.022.

And the NP40-soluble protein abundance ([5]; concentration: 2mM)?
Its NP40-soluble protein abundance is 0.996 ± 0.024.

And the NP40-soluble protein abundance ([5]; concentration: 4mM)?
Its NP40-soluble protein abundance is 0.983 ± 0.028.

What about the NP40-soluble protein abundance ([5]; concentration: 6mM) of the same compound?
The NP40-soluble protein abundance was 1 ± 0.017.

What about the NP40-soluble protein abundance ([5]; concentration: 8mM) of the same compound?
Its NP40-soluble protein abundance is 1.01 ± 0.02.

What about the NP40-soluble protein abundance ([5]; concentration: 10mM) of the same compound?
Its NP40-soluble protein abundance is 0.988 ± 0.036.
